# Results deposited as PubChem BioAssay AID1508597 (Cure First, 2020)
# Screen: 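Knock-downs altering ovarian cancer cell survival with or without PARP inhibitor rucaparib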 (primary screen)
# System: human ovarian carcinoma lines grown from tumours: OCI-P5x (papillary serous) and OCI-C5x (clear cell)
# Reagent: siRNA pool against human genes, 1.25 pmol siRNA per well
# Time to read-out: 72 h or 96 h, depending on the cell culture
# Challenge: rucaparib 20 µM (about IC30) or vehicle, present until read-out
# Rucaparib or vehicle: Rucaparib
# Cell line: OCI-P5x (serous)
# Read-out: 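ATP luminescence measured at 72 or 96 h according to the culture, then normalised and expressed as percent viability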
# Reading the numbers: viability, normalised: higher = more viable cells remaining
# Rule for the call: 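a well counts as a hit if its normalised viability is under 80 percent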
# Calls: active = viability under 80%; inactive = viability 80% or more
# This is a random part of the about 2,100 reagents, in one setting of the screen. 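Calls flag viability under 80% in either arm, not effects specific to rucaparib; the reference for percent is not stated.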 A reagent listed more than once was tested more than once; the source does not tell the runs apart. The record does not give: the 100% reference.
gene symbol,technical replicate,"viability, normalised (%)",outcome
ARID2 (GeneID 196528),1,61.2,active
ARID2 (GeneID 196528),2,58.6,active
ARID2 (GeneID 196528),3,69.9,active
P2RY2 (GeneID 5029),1,55.1,active
P2RY2 (GeneID 5029),2,48.2,active
P2RY2 (GeneID 5029),3,51.9,active
ARID4A (GeneID 5926),1,74.9,active
ARID4A (GeneID 5926),2,84.1,inactive
ARID4A (GeneID 5926),3,72,active
EVI5L (GeneID 115704),1,77.6,active
EVI5L (GeneID 115704),2,78.8,active
EVI5L (GeneID 115704),3,86.4,inactive
ABL1 (GeneID 25),1,91.6,inactive
ABL1 (GeneID 25),1,117,inactive
ABL1 (GeneID 25),2,94.4,inactive
ABL1 (GeneID 25),2,107,inactive
ABL1 (GeneID 25),3,79.5,active
ABL1 (GeneID 25),3,99.1,inactive
TNF (GeneID 7124),1,50,active
TNF (GeneID 7124),2,36.3,active
TNF (GeneID 7124),3,36.7,active
PHF2 (GeneID 5253),1,54.1,active
PHF2 (GeneID 5253),2,59,active
PHF2 (GeneID 5253),3,46.9,active
PRKXP1 (GeneID 441733),1,106,inactive
PRKXP1 (GeneID 441733),2,110,inactive
PRKXP1 (GeneID 441733),3,114,inactive
ERCC2 (GeneID 2068),1,117,inactive
ERCC2 (GeneID 2068),1,55,active
ERCC2 (GeneID 2068),2,123,inactive
ERCC2 (GeneID 2068),2,53.7,active
ERCC2 (GeneID 2068),3,117,inactive
ERCC2 (GeneID 2068),3,59.4,active

Sorted by “viability, normalised (%)” (high to low): 4 of the entries above
gene symbol,technical replicate,"viability, normalised (%)",outcome
ARID4A (GeneID 5926),2,84.1,inactive
ARID4A (GeneID 5926),1,74.9,active
P2RY2 (GeneID 5029),3,51.9,active
P2RY2 (GeneID 5029),2,48.2,active

The list goes on.
gene symbol,technical replicate,"viability, normalised (%)",outcome
PRKCI (GeneID 5584),1,59.5,active
PRKCI (GeneID 5584),1,108,inactive
PRKCI (GeneID 5584),2,65.5,active
PRKCI (GeneID 5584),2,94,inactive
PRKCI (GeneID 5584),3,60.1,active
PRKCI (GeneID 5584),3,90.9,inactive
TKFC (GeneID 26007),1,80.2,inactive
TKFC (GeneID 26007),2,63.3,active
TKFC (GeneID 26007),3,70,active
RPL11 (GeneID 6135),1,57.9,active
RPL11 (GeneID 6135),2,65.4,active
RPL11 (GeneID 6135),3,60.5,active
CREBBP (GeneID 1387),1,54.1,active
CREBBP (GeneID 1387),2,68.7,active
CREBBP (GeneID 1387),3,66.2,active
TBK1 (GeneID 29110),1,51,active
TBK1 (GeneID 29110),2,61.4,active
TBK1 (GeneID 29110),3,70.6,active
PAN3 (GeneID 255967),1,93.7,inactive
PAN3 (GeneID 255967),2,93.9,inactive
PAN3 (GeneID 255967),3,70,active
CDKN2A (GeneID 1029),1,51.8,active
CDKN2A (GeneID 1029),2,52.2,active
CDKN2A (GeneID 1029),3,50.7,active
